Measurements taken from article doi:10.1101/2022.09.29.510132.

The chains behind the UniProt entries cited, without tags or fusion partners. Where a name states a change or a piece, a line headed by the entry shows the natural chain unless it says otherwise.
UniProt Q9UMX0: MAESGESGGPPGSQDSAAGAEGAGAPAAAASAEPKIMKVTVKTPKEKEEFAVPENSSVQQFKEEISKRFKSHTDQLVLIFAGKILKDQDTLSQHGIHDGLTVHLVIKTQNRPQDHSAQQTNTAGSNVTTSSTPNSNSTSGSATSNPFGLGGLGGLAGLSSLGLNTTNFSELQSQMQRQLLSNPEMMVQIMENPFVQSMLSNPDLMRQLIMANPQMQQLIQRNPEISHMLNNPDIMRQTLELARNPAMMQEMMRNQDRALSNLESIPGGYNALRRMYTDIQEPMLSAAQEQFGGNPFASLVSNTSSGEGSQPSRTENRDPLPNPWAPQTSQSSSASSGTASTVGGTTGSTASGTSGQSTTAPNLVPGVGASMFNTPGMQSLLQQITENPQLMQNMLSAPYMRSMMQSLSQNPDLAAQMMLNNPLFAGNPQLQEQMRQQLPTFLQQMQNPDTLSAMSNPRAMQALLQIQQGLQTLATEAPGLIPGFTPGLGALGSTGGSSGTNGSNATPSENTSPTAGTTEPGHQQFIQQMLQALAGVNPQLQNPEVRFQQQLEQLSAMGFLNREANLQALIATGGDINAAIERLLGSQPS
UniProt Q9UHD9: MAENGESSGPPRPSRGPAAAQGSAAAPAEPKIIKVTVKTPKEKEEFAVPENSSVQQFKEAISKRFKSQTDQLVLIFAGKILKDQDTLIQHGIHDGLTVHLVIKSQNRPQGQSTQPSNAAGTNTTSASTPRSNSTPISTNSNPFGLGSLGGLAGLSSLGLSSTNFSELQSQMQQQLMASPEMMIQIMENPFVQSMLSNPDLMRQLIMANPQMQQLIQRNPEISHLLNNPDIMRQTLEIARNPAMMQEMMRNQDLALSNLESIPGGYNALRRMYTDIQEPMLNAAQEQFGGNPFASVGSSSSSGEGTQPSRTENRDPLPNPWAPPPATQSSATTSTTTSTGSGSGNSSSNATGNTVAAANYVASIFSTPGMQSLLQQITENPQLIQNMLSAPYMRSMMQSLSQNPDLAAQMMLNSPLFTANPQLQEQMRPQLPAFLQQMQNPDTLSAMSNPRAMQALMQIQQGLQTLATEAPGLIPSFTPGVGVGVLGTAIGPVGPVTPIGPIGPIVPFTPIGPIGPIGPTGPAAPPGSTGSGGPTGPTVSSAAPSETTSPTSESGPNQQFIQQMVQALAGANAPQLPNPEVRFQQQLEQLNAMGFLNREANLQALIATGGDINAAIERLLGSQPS
UniProt P55036: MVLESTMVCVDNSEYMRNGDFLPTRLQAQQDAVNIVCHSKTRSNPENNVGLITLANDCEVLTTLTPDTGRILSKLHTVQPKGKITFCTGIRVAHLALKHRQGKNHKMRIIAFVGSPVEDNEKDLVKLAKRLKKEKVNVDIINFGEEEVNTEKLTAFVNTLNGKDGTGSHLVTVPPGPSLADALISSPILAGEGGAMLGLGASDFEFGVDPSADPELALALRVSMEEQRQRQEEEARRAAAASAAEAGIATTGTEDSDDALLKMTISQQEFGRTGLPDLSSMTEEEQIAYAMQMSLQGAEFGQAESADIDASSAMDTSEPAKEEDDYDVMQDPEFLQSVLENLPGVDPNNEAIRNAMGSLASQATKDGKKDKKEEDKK

Columns and labels:
[1] = biological target: UBQLN1 (human (endogenous in HCT116)) (UniProt Q9UMX0); assay: co-IP
[2] = biological target: UBQLN2 (human (endogenous in HCT116)) (UniProt Q9UHD9); assay: co-IP

binding [1]: binds | binding [2]: binds
Substance: hRpn10 lacking the RAZUL domain (from UniProt P55036)

No constants are given. Whether binding was seen depends on the method and setting. Binding seen in cells or lysates may run through a third protein. Binding can be weak; no strength is given.
